# Data as given in PubChem BioAssay AID1053208 (Peter MacCallum Cancer Centre, 2014).
# Aim: 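Synthetic lethal interactions between gene loss and doxorubicin in osteosarcoma cells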 (primary screen)
# System: mouse osteosarcoma cells, early-passage culture from an engineered mouse model of fibroblastic bone tumour
# Knock-down reagent: siRNA pool against mouse genes, 40 nM
# Duration: about 120 h (48 h before drug, then 72 h with drug)
# Challenge: doxorubicin 100 nM for 72 h, roughly 30-40% inhibitory dose
# Measurement: 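Luminescent ATP signal taken as viability with or without 100 nM doxorubicin for 72 h; mean of two wells set against non-targeting siRNA and turned into robust z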
# Direction: viability z-score with doxorubicin and doxorubicin viability vs non-targeting: higher = more viable cells under doxorubicin; viability z-score without drug: higher = more viable cells with knock-down alone; z-score of drug to no-drug ratio: higher = less drug sensitisation by knock-down
# Hit rule: 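a pool counts as active when its viability z-score with doxorubicin is -2 or below and its z-score without drug lies between -2 and 2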
# Here is a random part of about 17,000 reagents. Over the whole deposit, 788 (4.7%) are marked active. 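Calls rest on z-score classes alone; an extra cut-off of viability at most 70% of control was not applied to them.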 Reagent sequences are not shown.
gene knocked down,PubChem SID,combined z-score class,viability z-score with doxorubicin,viability z-score without drug,z-score of drug to no-drug ratio,doxorubicin viability vs non-targeting,activity call
Rpp21,SID152273313,no change with or without drug,0,-0.84,0.67,0.94,inactive
Pramel7,SID152342699,no change with or without drug,0.67,-0.84,1.46,1,inactive
Chpf2,SID152324820,no change with or without drug,0.34,1.52,-0.56,0.97,inactive
Gtf2f1,SID152270867,no change with or without drug,-1.57,0,-1.57,0.8,inactive
Gabrp,SID152284968,no change with or without drug,0.79,0.67,0.45,1.01,inactive
Cd4,SID152323602,no change with or without drug,-0.9,-1.69,0.34,0.86,inactive
2310030G06Rik,SID152302669,no change with or without drug,-0.45,1.18,-1.12,0.9,inactive
Csrnp2,SID152337382,no change with or without drug,0.34,-0.17,0.56,0.97,inactive
Cd300c,SID152289997,no change with or without drug,-0.67,0.84,-1.12,0.88,inactive
Oasl2,SID152318595,no change with or without drug,0.67,-0.51,1.24,1,inactive
Mmp10,SID152343120,no change with or without drug,-0.79,-0.51,-0.34,0.87,inactive
Ttbk1,SID152276225,no change with or without drug,1.35,0.17,1.35,1.06,inactive
Dusp5,SID152280296,no change with or without drug,1.91,0.17,2.02,1.11,inactive
Ykt6,SID152306058,no change with or without drug,0.22,0.51,0,0.96,inactive
Aimp2,SID152282684,no change with or without drug,0.45,1.69,-0.56,0.98,inactive
Maoa,SID152279797,low cell count without drug only,0.45,-2.19,2.47,0.98,inactive
Plod2,SID152272692,low cell count with and without drug,-2.81,-2.19,-1.57,0.69,inactive
Pde6d,SID152275952,no change with or without drug,0.79,-0.84,1.57,1.01,inactive
Dnase1l3,SID152270115,high cell count without drug only,0.79,2.19,-0.45,1.01,inactive
Uimc1,SID152265183,no change with or without drug,-1.12,-0.84,-0.56,0.84,inactive
Hs6st2,SID152261274,no change with or without drug,1.91,1.18,1.24,1.11,inactive
Armh4,SID152321607,no change with or without drug,0.34,-0.17,0.56,0.97,inactive
Gabra6,SID152262889,no change with or without drug,1.12,-0.34,1.57,1.04,inactive
Pigk,SID152315617,high cell count with and without drug,2.02,2.53,0.45,1.12,inactive
Rrp1b,SID152279235,no change with or without drug,0.22,0.17,0.22,0.96,inactive
Rorb,SID152332267,no change with or without drug,-1.12,0,-1.12,0.84,inactive
Fam53c,SID152297665,no change with or without drug,0.45,0.51,0.22,0.98,inactive
Unc50,SID152315390,no change with or without drug,-0.11,-0.17,0.11,0.93,inactive
Insyn1,SID152318962,no change with or without drug,0.9,1.35,0.11,1.02,inactive
Aip,SID152272937,no change with or without drug,-0.67,-0.51,-0.22,0.88,inactive
Asb17,SID152324831,low cell count with doxorubicin only,-4.05,0.51,-4.38,0.58,active
Cyp26a1,SID152314350,no change with or without drug,0.34,0.17,0.34,0.97,inactive
Ntn4,SID152335972,no change with or without drug,0.34,-0.17,0.56,0.97,inactive

Laid out differently: 7 of the entries above
{"gene knocked down":"Cd300c","PubChem SID":"SID152289997","combined z-score class":"no change with or without drug","viability z-score with doxorubicin":-0.67,"viability z-score without drug":0.84,"z-score of drug to no-drug ratio":-1.12,"doxorubicin viability vs non-targeting":0.88,"activity call":"inactive"}
{"gene knocked down":"Oasl2","PubChem SID":"SID152318595","combined z-score class":"no change with or without drug","viability z-score with doxorubicin":0.67,"viability z-score without drug":-0.51,"z-score of drug to no-drug ratio":1.24,"doxorubicin viability vs non-targeting":1,"activity call":"inactive"}
{"gene knocked down":"Mmp10","PubChem SID":"SID152343120","combined z-score class":"no change with or without drug","viability z-score with doxorubicin":-0.79,"viability z-score without drug":-0.51,"z-score of drug to no-drug ratio":-0.34,"doxorubicin viability vs non-targeting":0.87,"activity call":"inactive"}
{"gene knocked down":"Ttbk1","PubChem SID":"SID152276225","combined z-score class":"no change with or without drug","viability z-score with doxorubicin":1.35,"viability z-score without drug":0.17,"z-score of drug to no-drug ratio":1.35,"doxorubicin viability vs non-targeting":1.06,"activity call":"inactive"}
{"gene knocked down":"Dusp5","PubChem SID":"SID152280296","combined z-score class":"no change with or without drug","viability z-score with doxorubicin":1.91,"viability z-score without drug":0.17,"z-score of drug to no-drug ratio":2.02,"doxorubicin viability vs non-targeting":1.11,"activity call":"inactive"}
{"gene knocked down":"Ykt6","PubChem SID":"SID152306058","combined z-score class":"no change with or without drug","viability z-score with doxorubicin":0.22,"viability z-score without drug":0.51,"z-score of drug to no-drug ratio":0,"doxorubicin viability vs non-targeting":0.96,"activity call":"inactive"}
{"gene knocked down":"Aimp2","PubChem SID":"SID152282684","combined z-score class":"no change with or without drug","viability z-score with doxorubicin":0.45,"viability z-score without drug":1.69,"z-score of drug to no-drug ratio":-0.56,"doxorubicin viability vs non-targeting":0.98,"activity call":"inactive"}

The listing continues.
gene knocked down,PubChem SID,combined z-score class,viability z-score with doxorubicin,viability z-score without drug,z-score of drug to no-drug ratio,doxorubicin viability vs non-targeting,activity call
Mpz,SID152306746,no change with or without drug,0.22,-0.84,1.01,0.96,inactive
Slc36a4,SID152342400,no change with or without drug,-1.91,-0.17,-1.8,0.77,inactive
Pecam1,SID152310724,no change with or without drug,1.46,0.17,1.46,1.07,inactive
Or2d36,SID152318693,no change with or without drug,-0.45,0.51,-0.67,0.9,inactive
Gpsm2,SID152302620,no change with or without drug,0.34,0.51,0.11,0.97,inactive
Orm2,SID152271243,no change with or without drug,-0.67,-0.51,-0.22,0.88,inactive
Mrpl15,SID152278239,low cell count with and without drug,-3.6,-2.19,-2.47,0.62,inactive
Mkrn2,SID152342406,low cell count with doxorubicin only,-2.25,-0.34,-2.02,0.74,active
9330119M13Rik,SID152326188,no change with or without drug,0.22,-0.17,0.45,0.96,inactive
Plekho2,SID152291411,no change with or without drug,-0.9,0.67,-1.24,0.86,inactive
Fthl17e,SID152299930,low cell count with doxorubicin only,-2.47,0.51,-2.81,0.72,active
Hormad1,SID152304255,low cell count with doxorubicin only,-4.27,-0.17,-4.27,0.56,active
Sart1,SID152326215,no change with or without drug,-1.01,-0.17,-0.9,0.85,inactive
Or1e26,SID152290164,no change with or without drug,0.34,-0.51,0.79,0.97,inactive
Or14j5,SID152341270,no change with or without drug,-0.45,-0.84,0.22,0.9,inactive
Afp,SID152283146,no change with or without drug,0.9,-0.34,1.35,1.02,inactive
Zfp607b,SID152267415,no change with or without drug,-0.9,-0.17,-0.79,0.86,inactive
